The values that follow come from publication PMC7819943, “Rice protein-binding microarrays: a tool to detect cis-acting elements near promoter regions in rice”.

The chains behind the UniProt entries cited, without tags or fusion partners.
UniProt Q0JBA9, entry or part of it: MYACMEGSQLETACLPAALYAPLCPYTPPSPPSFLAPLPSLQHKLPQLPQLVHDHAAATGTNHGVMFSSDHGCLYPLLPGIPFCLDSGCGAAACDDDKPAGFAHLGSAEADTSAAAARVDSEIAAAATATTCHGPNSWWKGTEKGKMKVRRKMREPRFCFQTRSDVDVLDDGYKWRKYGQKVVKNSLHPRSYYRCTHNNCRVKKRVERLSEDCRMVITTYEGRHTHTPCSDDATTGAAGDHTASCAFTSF

Some of the results follow.

This test deals with OsWRKY34 (Oryza sativa, UniProt Q0JBA9 1-250). The test can be described thus: protein-binding microarray (RPBM); PBS, 2% BSA, 51.3 ng/ul salmon testes DNA, 50 uM zinc acetate, 200 nM TF, 25 C, 1 h; high values mean tight binding. The note with it: protein: recombinant; tags: N-terminal polyhistidine and DsRed monomer fusion (pET32a); label: CyDye5-dUTP incorporated in the synthesized complementary strand; 3' TTTTT single-stranded linker to array surface; dsDNA, one strand shown. The procedure, abridged: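 An Axon 4000B scanner gave the binding signal as per-feature fluorescence intensity in arbitrary units. This followed washing of a custom Agilent array that had been incubated for 1 h at 25 °C with 200 nM protein in PBS, 2% BSA, salmon testes DNA and 50 µM zinc acetate. The proteins were transcription factors fused at the N-terminus to polyhistidine and DsRed, expressed in E. coli BL21-CodonPlus and purified on Ni–NTA.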
As for “ATCTGTACACCATCAGCCCATCTGTACTCATATCTGCATACGGAGTCACCTAGTGCAG”, the binding signal was 11100 fluorescence intensity (a.u.). As for “GAGGCTACCTAGACGTTATTTTGTTCCGCTGCTACGCCTTCGGAGTCACCTAGTGCAG”, the binding signal was 8070 fluorescence intensity (a.u.).

In the case of “TTTGTTGCCGATTTGCTGCCGTGTTTGCTGCCGCGATTTGCGGAGTCACCTAGTGCAG”, the binding signal was 10800 fluorescence intensity (a.u.). In the case of “TAAATGATCTTTGCTGTGTTAATATTCTGTTCTTAATTTTCGGAGTCACCTAGTGCAG” it was 9100 fluorescence intensity (a.u.). Consider “TTTTTTTATATCAAACTTTTTAAATGTTTGACCAAGTTTACGGAGTCACCTAGTGCAG”, for which the binding signal is 8210 fluorescence intensity (a.u.).

On to “CCAGCTTGTGATGTACCTAAGTTTTGTTAACATATGTCTGCGGAGTCACCTAGTGCAG”, for which the binding signal is 9310 fluorescence intensity (a.u.). For “ATTGCGCGTCCTACACACTCGTACTGGAAGACTATTGGTGCGGAGTCACCTAGTGCAG”, the binding signal is 8830 fluorescence intensity (a.u.). Regarding “TCCTCTTCGCCGGCTGCCGCTCCTCTCCCCGCTCGTCTTTCGGAGTCACCTAGTGCAG”, the binding signal is 9440 fluorescence intensity (a.u.).

As to “TTTTACTACCTCACCTCCCACTCTACTGCTACTCAACAATCGGAGTCACCTAGTGCAG”, the binding signal is 8410 fluorescence intensity (a.u.). The same measure for “CTTCCTTCAGCCGCTTGCTCCTCGCTATCTGTCCCGGCTGCGGAGTCACCTAGTGCAG”: 9860 fluorescence intensity (a.u.); for “TTAGGTCCAAATCACACAGATTTTAGATAGTTGGATTAGGCGGAGTCACCTAGTGCAG”: 9050 fluorescence intensity (a.u.). In the case of “GATCTCCTCAAGCGTTGGCATTCCCAAGTTGTTATCATTCCGGAGTCACCTAGTGCAG”, the binding signal was 9610 fluorescence intensity (a.u.). As to “GGGGCGGAGATCTGGGAGGAGGAGGAGGAGGTGGTGGTGGCGGAGTCACCTAGTGCAG”, the binding signal is 14500 fluorescence intensity (a.u.). In the case of “CCTGTTGCTGCTCTGTGCCTCTGCTCTGCTCCTTGACTTCCGGAGTCACCTAGTGCAG” it was 11300 fluorescence intensity (a.u.).

For the sequence “TGACTTTTTAGCACATGTTTGACTGTTCGTCTTATTCAAACGGAGTCACCTAGTGCAG”, the binding signal is 10200 fluorescence intensity (a.u.). On to “CAGGGGTGGGCCCAGTAGTAATTCAAGGGTATTCCCAAGACGGAGTCACCTAGTGCAG”, for which the binding signal is 8560 fluorescence intensity (a.u.). On to “TCGCTGTTGAACTCTCTCTTCCCTCTCTCTCTTTCTCTCTCGGAGTCACCTAGTGCAG”, for which the binding signal is 8400 fluorescence intensity (a.u.). For the sequence “GTCGAAACCCTAGCCGCGCGCGCCGCCGCCTCCTCTCCCGCGGAGTCACCTAGTGCAG”, the binding signal is 8290 fluorescence intensity (a.u.). In the case of “TACGACGGCCGAAGGTGGGGAAGAAGGAGAGGGGAGGGGCCGGAGTCACCTAGTGCAG” it was 9290 fluorescence intensity (a.u.). Regarding “GACCTCCTCATTTCGTCGAACACCTCGCGGGCGCCATGGACGGAGTCACCTAGTGCAG”, the binding signal was 9030 fluorescence intensity (a.u.). In the case of “ATCGCTTCTCGCTGCTCATCTAGTCTATTGTGCTGCTGCTCGGAGTCACCTAGTGCAG”, the binding signal was 8680 fluorescence intensity (a.u.). For the sequence “ATTCTACATTTTGATATCAAGCCGCACAACATCCTTCTTGCGGAGTCACCTAGTGCAG”, the binding signal was 9850 fluorescence intensity (a.u.).

Regarding “CACGCTAGCTACTTCCCGCAGTTTGTGTATGCGGTGCAACCGGAGTCACCTAGTGCAG”, the binding signal is 8050 fluorescence intensity (a.u.). For the sequence “TATGTGTGCGTCCATATGTTACAAATTAAGCGATTTTTCTCGGAGTCACCTAGTGCAG”, the binding signal is 9340 fluorescence intensity (a.u.). Take “CGTGCTTTTGTAAATATTTTCGATCTGGTTTTCCTTATAACGGAGTCACCTAGTGCAG”: the binding signal was 9390 fluorescence intensity (a.u.).

Regarding “GCATATTTGCATTACTTTTTGTACCACTTGATCACTTTTTCGGAGTCACCTAGTGCAG”, the binding signal was 10200 fluorescence intensity (a.u.). For the sequence “CGTCCATCTCTCCTCTCCTCGCTCTCGCTCGCTCGCTCTCCGGAGTCACCTAGTGCAG”, the binding signal is 8780 fluorescence intensity (a.u.). For “TACCGTACCTGCCCATGCTGTCGTCATCCCACCGAGGGGACGGAGTCACCTAGTGCAG”, the binding signal was 8470 fluorescence intensity (a.u.).

For the sequence “AGATTCTTATTCACCATTCCTGGAGCTCATGCTTAATTTCCGGAGTCACCTAGTGCAG”, the binding signal was 9980 fluorescence intensity (a.u.). Take “GCATGTGTGGTTGACTAGCTTGCACCAGATCTGTTGGAGTCGGAGTCACCTAGTGCAG”: the binding signal was 8790 fluorescence intensity (a.u.). In the case of “GGTGGGAATGATGACAAAAACTAATTATCCAAAGCTTACCCGGAGTCACCTAGTGCAG” it was 8630 fluorescence intensity (a.u.). Take “TCGTTTTTTTCCCCTTAGAGGCTTAGATATCGAATTTCCTCGGAGTCACCTAGTGCAG”: the binding signal was 9190 fluorescence intensity (a.u.). “GGTTGGATAGCGCTTGTGGTGTGGGCAGGGTTTACACAAACGGAGTCACCTAGTGCAG”: the binding signal was 14900 fluorescence intensity (a.u.). For “CAAGGCCTCAACCTACTCCAGCTATCTCGCCGTACCGCCGCGGAGTCACCTAGTGCAG”, the binding signal is 8360 fluorescence intensity (a.u.). As to “TACTTACGTTCTTTCATTTGATTTGGCATGTGTACTCTCTCGGAGTCACCTAGTGCAG”, the binding signal was 9650 fluorescence intensity (a.u.). In the case of “GAACCAGGTACCTGCAATTACCACTGCTTTTTAGGCTTCCCGGAGTCACCTAGTGCAG” it was 10700 fluorescence intensity (a.u.); in that of “TTTATTCTTGATTGATTTACTTTTGGTTTTTGCATAAACTCGGAGTCACCTAGTGCAG”, 9010 fluorescence intensity (a.u.); in that of “ATGTCAGCATAATCTCTTCTCATCTTCTCCTTTTCTTTTTCGGAGTCACCTAGTGCAG”, 8550 fluorescence intensity (a.u.).

As for “GTTCCCAGATGATATATTCTTGCTTTTTTTTTCTTGAAAACGGAGTCACCTAGTGCAG”, the binding signal is 9800 fluorescence intensity (a.u.).

Turning to “AGTGGTCGTCGCCTTTCTCGTGTCTCGTCGACGGCCGCGACGGAGTCACCTAGTGCAG”, the binding signal is 9250 fluorescence intensity (a.u.). Consider “AATTCGTTCCATATTCTACTTGTTCTCTCTGCTATTATTACGGAGTCACCTAGTGCAG”, for which the binding signal is 8440 fluorescence intensity (a.u.). On to “CCTCGCTTCTGCTCCTCGGTCCCGCACCTGCCTCCGCCTTCGGAGTCACCTAGTGCAG”, for which the binding signal was 9060 fluorescence intensity (a.u.). In the case of “CTCAAGTTGACCAAGCCGCTCTTTAAATCCCTAATGGCTACGGAGTCACCTAGTGCAG” it was 9390 fluorescence intensity (a.u.). The same measure for “TTTTTAAGTTCGTTTCTGAATTCTGCTGATTACTCTTTTTCGGAGTCACCTAGTGCAG”: 8710 fluorescence intensity (a.u.).

As for “ATAATTAAGCATTTTCTTGTTTCATATGTGCTTGTTTGACCGGAGTCACCTAGTGCAG”, the binding signal is 10100 fluorescence intensity (a.u.).

For “AAATTCCGGCCGCCGCCTTCGATTCCCGCGTGCCCACGCACGGAGTCACCTAGTGCAG”, the binding signal was 12000 fluorescence intensity (a.u.). For “CCCGTCCTTGGTCGCGCTCGCACTCGCACTCGCGTCGCGTCGGAGTCACCTAGTGCAG”, the binding signal was 8970 fluorescence intensity (a.u.). As to “TTGGTCCTTTTATTGCCACTAATTGGCTCGTCTAATATTACGGAGTCACCTAGTGCAG”, the binding signal was 9310 fluorescence intensity (a.u.). As to “AATTCGTCTCATGGTTTACTAACGTATTTTATAATTATTTCGGAGTCACCTAGTGCAG”, the binding signal was 8080 fluorescence intensity (a.u.). “TACTACCACACCACACCTCATCGTGGCACGTACCGGTTCACGGAGTCACCTAGTGCAG”: the binding signal was 9410 fluorescence intensity (a.u.). In the case of “TGCTCGCCGCTACTGTGTTCCTCTCGCGTCGCCTCGTCTCCGGAGTCACCTAGTGCAG” it was 11900 fluorescence intensity (a.u.); in that of “GTCCTTGTTTATGTATGGCCCTTGTCCATGGTGCAGTTCACGGAGTCACCTAGTGCAG”, 10200 fluorescence intensity (a.u.); in that of “CTTCCCCTTCTCAATCTTGTCGCGCCATCCACCTCGCCACCGGAGTCACCTAGTGCAG”, 9410 fluorescence intensity (a.u.). Turning to “CATATTAATTACTTTCTTGGTTCTAACTTCGTCTTCATCTCGGAGTCACCTAGTGCAG”, the binding signal was 9530 fluorescence intensity (a.u.).
